Drawing on publication PMC7819943, “Rice protein-binding microarrays: a tool to detect cis-acting elements near promoter regions in rice”, this text covers binding signal for 42 sequences.

The other results are listed elsewhere or left out.

The target in this experiment is T1, OsSMF1 (Oryza sativa, UniProt Q6ZLB0 1-436).
T1 sequence: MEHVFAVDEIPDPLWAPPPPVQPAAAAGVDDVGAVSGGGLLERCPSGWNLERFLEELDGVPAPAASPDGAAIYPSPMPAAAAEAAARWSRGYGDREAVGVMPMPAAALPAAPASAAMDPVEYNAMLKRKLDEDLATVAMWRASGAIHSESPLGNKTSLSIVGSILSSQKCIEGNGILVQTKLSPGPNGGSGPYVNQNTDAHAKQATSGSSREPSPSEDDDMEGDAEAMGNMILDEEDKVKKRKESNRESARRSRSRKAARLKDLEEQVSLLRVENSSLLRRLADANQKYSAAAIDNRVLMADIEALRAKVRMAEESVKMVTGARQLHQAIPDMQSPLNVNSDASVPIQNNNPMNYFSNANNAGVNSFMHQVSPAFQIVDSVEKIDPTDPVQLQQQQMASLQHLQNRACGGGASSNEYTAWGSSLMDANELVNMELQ
The experiment can be described thus: protein-binding microarray (RPBM); PBS, 2% BSA, 51.3 ng/ul salmon testes DNA, 50 uM zinc acetate, 200 nM TF, 25 C, 1 h; high values mean tight binding. Conditions: protein: recombinant; tags: N-terminal polyhistidine and DsRed monomer fusion (pET32a); chain copies: 2; label: CyDye5-dUTP incorporated in the synthesized complementary strand; 3' TTTTT single-stranded linker to array surface; dsDNA, one strand shown. In a few lines:
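The binding signal is fluorescence intensity per feature, in arbitrary units, read on an Axon 4000B scanner. Polyhistidine- and DsRed-tagged transcription factors (N-terminal fusions) from E. coli BL21-CodonPlus were purified on Ni–NTA and applied at 200 nM for 1 h at 25 °C to a double-stranded, BSA-blocked custom Agilent array in buffer with 50 µM zinc acetate.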
“CTAGACCAGATGAGCGAACTCCAAAACTGGATTGTCCATGCGGAGTCACCTAGTGCAG”: the binding signal was 3200 fluorescence intensity (a.u.).
To “CCACTGTTTTCCACTACTTAGTGTGCTTACTCATGGGCTCCGGAGTCACCTAGTGCAG” belongs 5110 fluorescence intensity (a.u.); to “ACGGCTCGTGATCAGCATCGCGCCACGTGTCCGTCCCACCCGGAGTCACCTAGTGCAG”, 23500 fluorescence intensity (a.u.); to “AATGTTTGTAGCACGGGAGGCATACCACATACATACATTGCGGAGTCACCTAGTGCAG”, 3640 fluorescence intensity (a.u.).
On to “ACATGTGGGTCCTGTTGACATGTAGGTGCCACCTTGGCATCGGAGTCACCTAGTGCAG”, for which the binding signal was 4440 fluorescence intensity (a.u.).
To “CGAGACTATCATCTAATGGACAACTCATCTTTTAATTGTGCGGAGTCACCTAGTGCAG” belongs 5180 fluorescence intensity (a.u.); to “GCCTCGCGCCGTGACCACGTCCACGACGACGAGGACGACGCGGAGTCACCTAGTGCAG”, 3490 fluorescence intensity (a.u.); to “TACTACTACTTCTCGGCCGGTATGACGTTCGCCGACGATTCGGAGTCACCTAGTGCAG”, 3160 fluorescence intensity (a.u.).
Under “AGGGAGTAGTATAGAATAAGGGCCTGTTTAGATCCCCGGTCGGAGTCACCTAGTGCAG” stands 5040 fluorescence intensity (a.u.); under “TACTCCTTTCGTCTCCAACCCCTCGCCGCCGCCGCCACCCCGGAGTCACCTAGTGCAG”, 3180 fluorescence intensity (a.u.); under “CGAGACGTGCCTGCGGCGGTGCGGCGACGTGGAGATCCCGCGGAGTCACCTAGTGCAG”, 4840 fluorescence intensity (a.u.).
To “GGTCATTAGCCCCTGCTACTACCGCCGCCACGCCGTCGTCCGGAGTCACCTAGTGCAG” belongs 3520 fluorescence intensity (a.u.); to “GGGAAGGGTGACGGTGGTGCACATATGTGTGTGTGGCTGCCGGAGTCACCTAGTGCAG”, 3420 fluorescence intensity (a.u.).
Turning to “GTTGTTGTTCTTGGATGTGAATGTGAATAATGTGATGTTTCGGAGTCACCTAGTGCAG”, the binding signal was 3350 fluorescence intensity (a.u.).
To “CTCGAAATCTGGAACTTATTAGACTTCTCATGGTACGAATCGGAGTCACCTAGTGCAG” belongs 4450 fluorescence intensity (a.u.); to “GCTCTCTCTTCATCCTCCATGGCTATGGCTTGCATGATCTCGGAGTCACCTAGTGCAG”, 3250 fluorescence intensity (a.u.).
For “TTGGCCCAGTGGTCTTCCAAATGAGGCCCCACGAAGCCCTCGGAGTCACCTAGTGCAG”, the binding signal was 6420 fluorescence intensity (a.u.).
With “AAATAAATTTGACGTGAAGTGGAATGACAGCTGGTGAACTCGGAGTCACCTAGTGCAG”, the binding signal was 3520 fluorescence intensity (a.u.).
Under “CCGTTTAGCAGTTATGTACGTGTCAAAACCAGAGAATAGACGGAGTCACCTAGTGCAG” stands 4370 fluorescence intensity (a.u.).
To “CCGTGACACCAGCTCATGCTTCCAGCTCACCACTAGCACCCGGAGTCACCTAGTGCAG” belongs 6810 fluorescence intensity (a.u.); to “AACTAGTGCACAACTACACATCAGCTTCAGTCTGCTCACTCGGAGTCACCTAGTGCAG”, 3210 fluorescence intensity (a.u.); to “TCATCCACCAACTGGTGCAGCAGGGTCCAGTCATACAAAGCGGAGTCACCTAGTGCAG”, 3220 fluorescence intensity (a.u.).
To “TTTACAAAGTCAACGGTACAGATCATCAAACCAAGTGTTGCGGAGTCACCTAGTGCAG” belongs 3250 fluorescence intensity (a.u.); to “GAATTTCCCCGAAGGCCACGTCAAAACGCACGCAGCTACACGGAGTCACCTAGTGCAG”, 6480 fluorescence intensity (a.u.); to “CCAAATAGACTCTTACTTATAAGGGTTGAGTCTAGAGTGACGGAGTCACCTAGTGCAG”, 6050 fluorescence intensity (a.u.).
As for “AATGATGACAAGGTTGCCCTACCTTGTCATCTTCCTCATCCGGAGTCACCTAGTGCAG”, the binding signal was 5150 fluorescence intensity (a.u.).
In the case of “AGCTGGATTCATATCACAGTATCCCGTGCTCTAGCTGTCCCGGAGTCACCTAGTGCAG”, the binding signal is 3300 fluorescence intensity (a.u.).
To “ATTACCTTGTCACAGACAGCTCGCCGCACTTTCTCCCGAACGGAGTCACCTAGTGCAG” belongs 4040 fluorescence intensity (a.u.); to “AGTATATTCTTCTTACCCGACCGGTGACTTATTTCGAATGCGGAGTCACCTAGTGCAG”, 4030 fluorescence intensity (a.u.).
To “CAACCTCAACCTCACGCAGCTCCCGCGCCAACCGCGACCTCGGAGTCACCTAGTGCAG” belongs 3260 fluorescence intensity (a.u.).
To “TCGTAGGGGTAGAGTTTGCGTGCGTGTGTTCATAGGGGTGCGGAGTCACCTAGTGCAG” belongs 4520 fluorescence intensity (a.u.); to “GTGGGCTTGTCATTTGTCAACACTGCAGTACAGCACCGTTCGGAGTCACCTAGTGCAG”, 3160 fluorescence intensity (a.u.); to “ACCGCAGTCAGTGCCGCCACCAGCTGACCTGCCTGACCAACGGAGTCACCTAGTGCAG”, 3160 fluorescence intensity (a.u.).
Turning to “GGGTTAAGTCCCCTTATATTTGTGTGTGCTAGGGGATCGGCGGAGTCACCTAGTGCAG”, the binding signal was 3140 fluorescence intensity (a.u.).
“GGCGCGGTGAGGTGGCGGCGCAGTCGCCGGATCGGCTCCACGGAGTCACCTAGTGCAG”: the binding signal was 4510 fluorescence intensity (a.u.).
“ACCACTGTTTGTGGAGTGTGTGCACACACCACCTCCGATGCGGAGTCACCTAGTGCAG”: the binding signal is 3810 fluorescence intensity (a.u.).
To “CTCATGGCAACTCAGCCCATGAAGAAAGACTTGTACAGGCCGGAGTCACCTAGTGCAG” belongs 3370 fluorescence intensity (a.u.); to “ATGTGCTGGCGATCTTATCCACACCGTTTCCTTACACCCTCGGAGTCACCTAGTGCAG”, 37600 fluorescence intensity (a.u.).
In the case of “AATTTTGCTACAAGACATTACGATTTCGCGGTTTTAGCCGCGGAGTCACCTAGTGCAG”, the binding signal was 4220 fluorescence intensity (a.u.).
To “GCCGACACGTCGCGACGCCGCTTGCCACGCGCCACGCGCGCGGAGTCACCTAGTGCAG” belongs 6450 fluorescence intensity (a.u.); to “TCTTCATGTAGTCAGCATACATCTGTCACAGCCACAGACACGGAGTCACCTAGTGCAG”, 4480 fluorescence intensity (a.u.).
Regarding “GTCTCAATTAGGACCTAGAAAAGTTCAATGGCGTATATGACGGAGTCACCTAGTGCAG”, the binding signal was 3330 fluorescence intensity (a.u.).
